Data taken from patent EP0308499B1, “SUBSTRATE ASSISTED CATALYSIS” (GENENCOR INTERNATIONAL, INC., priority 1987, dated 1988).
Changes are numbered by the printed parent chain. At least one read-out could not be matched to a standard name with certainty. Numbered stars: 1 amine (or outer) side, 2 acyl side, 3 side chain; on linkers, the order of the positions; unused ones are H or OH. Peptide text beside a SMILES is read from it. * marks the point of attachment. pNA = O=[N+]([O-])c1ccc(N*)cc1; Suc = O=C(CCC(=O)[*:2])[*:1]

Chains of the proteins cited; added tags and fusions are not shown. Residues count along the entry.
UniProt P00782, 108-382 S131C: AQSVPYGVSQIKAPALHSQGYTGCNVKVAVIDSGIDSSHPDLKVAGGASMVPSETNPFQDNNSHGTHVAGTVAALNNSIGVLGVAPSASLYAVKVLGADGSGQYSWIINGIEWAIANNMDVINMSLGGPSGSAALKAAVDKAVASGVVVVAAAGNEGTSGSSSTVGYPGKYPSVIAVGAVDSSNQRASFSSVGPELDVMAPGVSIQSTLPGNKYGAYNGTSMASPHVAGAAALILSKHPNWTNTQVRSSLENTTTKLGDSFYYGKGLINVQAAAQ

Tests used:
Type in all cases: biochemical
[1] = biological target: T1, B. amyloliquefaciens subtilisin mutant Cys-24/Ala-64 (Ser-24→Cys/His-64→Ala) (Bacillus amyloliquefaciens, UniProt P00782, H171A/S131C); assay: Kinetic analysis of hydrolysis of p-nitroanilide peptide substrates (release of ρ-nitroaniline, Eadie-Hofstee plot); conditions: pH 8.6, Table V data
T1 construct: The His-64→Ala mutation caused a severe reduction in secretion of mature subtilisin; made in house; host or cells: Bacillus subtilis BG2036, co-cultured with helper cells carrying active Ala-48→Glu subtilisin
T1 sequence (P00782 108-382 S131C/H171A): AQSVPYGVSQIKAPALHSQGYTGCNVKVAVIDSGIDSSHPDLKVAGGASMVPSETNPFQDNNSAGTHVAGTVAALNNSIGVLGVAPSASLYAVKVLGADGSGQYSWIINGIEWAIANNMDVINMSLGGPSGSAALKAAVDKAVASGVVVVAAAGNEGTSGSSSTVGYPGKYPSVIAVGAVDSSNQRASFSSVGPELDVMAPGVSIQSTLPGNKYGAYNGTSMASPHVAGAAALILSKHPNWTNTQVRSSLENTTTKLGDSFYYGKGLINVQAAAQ
Method: (§1) The kinetic parameters for Cys-24 and Cys-24/Ala-64 were determined against the substrates N-succinyl-L-Phe-L-Ala-L-[X)-L-Phe-ρ-nitroanilide (abbreviated sFAXF-pNA), where X (P2 position) was Ala, Gln, or His (Table I). […] By comparison, the His-64→Ala mutation causes a drop of ∿10⁶ fold in kcat/Km against the Ala and Gln P2 substrates. Almost all of the decrease in catalytic efficiency is caused by a decreased kcat term (up to 10⁶ times), although smaller but significant increases appear in Km. […] Although the proportion of functional active sites in Cys-24/Ala-64 enzyme preparations could not be determined directly by such active site labeling, enzyme that was purified by additional native gel electrophoresis (Example 6) had identical kinetic parameters to Cys-24/Ala-64 described in Table V.

[2] = biological target: T2, B. amyloliquefaciens subtilisin, recombinant Cys-24 (Ser-24→Cys; kinetically essentially identical to wild-type) (Bacillus amyloliquefaciens, UniProt P00782, S131C); assay: as above; conditions: value repeated in the text
T2 construct: Maturation of the primary subtilisin gene product (preprosubtilisin) to subtilisin in B. substilis is believed to be mediated by autoproteolysis; made in house
T2 sequence (P00782 108-382 S131C): T1 sequence (P00782 108-382 S131C/H171A) with A64H
Method: as §1

[3] = biological target: T1, B. amyloliquefaciens subtilisin mutant Cys-24/Ala-64 (Ser-24→Cys/His-64→Ala); assay: pH dependence of hydrolysis of p-nitroanilide peptide substrates; conditions: linear fit against hydroxide ion concentration, pH 8 to 10, Tris.HCl or CAPS buffer

Row | Compound | kcat/Km of the His P2 substrate relative to the Ala P2 substrate (times more efficient) [1] | kcat/Km of the His P2 substrate relative to the Gln P2 substrate (times more efficient) [1] | kcat/Km [2] | increase in kcat/Km as a function of hydroxide concentration [3]
1 | C[C@H](NC(=O)[C@H](Cc1ccccc1)NC(=O)CCC(=O)O)C(=O)N[C@@H](Cc1c[nH]cn1)C(=O)N[C@@H](Cc1ccccc1)C(=O)Nc1ccc([N+](=O)[O-])cc1 [His, N-succinyl-L-Phe-L-Ala-L-X-L-Phe-ρ-nitroanilide] (Suc-FAHF-pNA) | 170 times | 210 times |  | 
2 | C[C@H](NC(=O)[C@H](C)NC(=O)[C@H](Cc1ccccc1)NC(=O)CCC(=O)O)C(=O)N[C@@H](Cc1ccccc1)C(=O)Nc1ccc([N+](=O)[O-])cc1 [Ala, N-succinyl-L-Phe-L-Ala-L-X-L-Phe-ρ-nitroanilide] (Suc-FAAF-pNA) |  |  | 8 x 10⁵ s¹M¹ | 2 x 10⁴ s⁻¹M⁻²
